In patent US5116818A, “Method and kit for contraception with GnRH-antagonist” (Medical College of Hampton Roads, priority 1990, dated 1992):
Where “and” joins values, the source holds several entries; their conditions need not be identical. Identical values can stand only once. Entries after “also recorded” stand apart in the source; their conditions may differ. Part of at least one peptide drawing is inferred or uncertain, most often the ends. Where a SMILES comes first, the peptide text is derived from it. [ ]: non-standard residue; d: D form. dPhe(4-Cl) = N[C@H](Cc1ccc(Cl)cc1)C(=O)O

Legend:
[1] = system: cynomolgus monkeys (Macaca fascicularis); assay: Study I: ovulation inhibition by intermittent (weekly) GnRH-antagonist treatment; assay type: in vivo
[2] = system: cynomolgus monkeys (Macaca fascicularis); assay: Study II: estrogen (E2 benzoate) challenge test during daily GnRH-antagonist regimen; assay type: in vivo
[3] = system: cynomolgus monkeys (Macaca fascicularis); assay: Study II: GnRH challenge test during daily GnRH-antagonist regimen; assay type: in vivo
serum LH and FSH levels = conditions: cited from earlier work
[4] = 4-week course of intermittent treatment

In the case of `CC(=O)N[C@H](Cc1ccc(Cl)cc1)C(=O)N[C@H](Cc1ccc(Cl)cc1)C(=O)N[C@H](Cc1c[nH]c2ccccc12)C(=O)N[C@@H](CO)C(=O)N[C@@H](Cc1ccc(O)cc1)C(=O)N[C@H](CCCNC(=N)N)C(=O)N[C@@H](CC(C)C)C(=O)N[C@@H](CCCNC(=N)N)C(=O)N1CCC[C@H]1C(=O)N[C@H](C)C(N)=O` [GnRH-antagonist, [Ac-4ClDPhe^1, 4ClDPhe^2,DTrp^3, DArg^6, DAla^10) GnRH] (Ac-[dPhe(4-Cl)][dPhe(4-Cl)][dW]SY[dR]LRP[dA]-NH2), the “ovulation sites seen at laparoscopy” value ([1]; 10 mg/kg im day 3, then 5 mg/kg days 10, 17, 24, 4-week course, weekly laparoscopy, eight monkeys) is reported as “no ovulation sites seen”, the “LH surges during treatment” value [1, 4] is reported as “no LH surges were found” and the “serum P4 elevations during treatment” value [1, 4] is reported as “lack of serum P4 elevations”. The “treatment intervals with no ovulation” value ([1]; administered once weekly) was 32 of 32, the “monkeys in which ovulation resumed promptly after the last administration” value ([1]; after cessation of therapy) was “six of the eight and 6 of 8” and the “luteal phase after resumption of ovulation” value ([1]; after discontinuation) was “normal length”. For the same compound, the “monkeys with timely LH surges after discontinuation of treatment” value ([1]; after discontinuation) was “six of either monkeys”, the “time for serum E2 levels to rise after discontinuation of treatment” value ([1]; after discontinuation) was no more than 3 weeks and the “suppression of E2 in serum” value ([1]; mean peripheral serum E2 immediately before and on the day after the four treatments) was “no sustained suppression”. For the same compound, the “serum E2 concentrations” value ([1]; remained near the level found in the early follicular phase of normal cycles) was 90 to 125 pg/mL, the “mean interval from the last treatment to the subsequent preovulatory E2 peaks and LH surges” value ([1]; six monkeys who resumed ovulatory menstrual cycles during the study interval) was “approximately 14 days” and the “earliest regain of ovulation after the final dose” value ([1]; some monkeys) was 8 to 10 days. For the same compound, the “resumption of regular menstrual cycles in the remaining two monkeys” value ([1]; study terminated day 64) was “nearly a month after completion of this study”, the “time until suppressed status ended after cessation of treatment” value ([1]; two monkeys with longer delays) was “less than 60 days” and the “first post treatment estradiol peak, time after the final dose” value ([1]; ±SEM, six of the eight monkeys) was 14.3 ± 3.8 days. The “preovulatory-like LH surges after E2 benzoate challenge” value ([2]; 2 mg/kg daily days 2 through 9, E2 benzoate 50 ug im day 6) was “absence of familiar preovulatory-like LH surges”, the “pituitary refractoriness to the E2 benzoate challenge test (monkeys)” value ([2]; 2 mg/kg daily days 2 through 9, E2 benzoate 50 ug im on cycle day 6) was “three of three” and the “estrogen-positive feedback for the LH surge” value ([2]; E2 benzoate challenge) was “clearly negated”. The “resumption of apparent ovulation” value ([2]; after daily regimen days 2 through 9) was “about 3 weeks”, the “unambiguous LH responses to GnRH (monkeys)” value ([3]; 2 mg/kg daily days 2 through 6, GnRH 50-ug iv bolus on cycle day 6) was “four of four” and the “LH elevation in response to GnRH” value ([3]; 2 mg/kg daily, GnRH 50-ug iv bolus day 6, all responses) was “exceeded 4 fold”. The “LH response to GnRH compared with control monkeys” value ([3]; same iv bolus dose of GnRH) was “did not differ significantly; also recorded: normal”, the “pituitary status at 50% of the dose used in Study II” value (serum LH and FSH levels; Kenigsberg et al. (1984)) was “medical hypophysectomy” and the “suppression of serum LH and FSH levels” value (serum LH and FSH levels; daily dose of 1 mg/kg, previous dose studies) was “profound suppression”.
